Source: PMC7889231 (Journal of Enzyme Inhibition and Medicinal Chemistry, 2021)

Tested on: MCF-7
Test: MTT anti-proliferative assay, MCF-7
Format: cell-based
Details: Homo sapiens, MCF7, read-out: IC50 MCF-7

`COc1cc2c(c(OC)c1OC)-c1ccc(OC)c(=O)cc1[C@@H](NC(C)=O)CC2` [Colchicine, reference compound] gave an IC50 of 10.4 ± 0.3 µM.
